Measured values published in the supplement of paper PMC10849652.
This is one part of the list.

Sequences of proteins named here, by UniProt entry; tags and fusion partners are left off. A change or cut given only in a name is not applied to a line headed by its entry.
UniProt P40938, whole entry, looked up: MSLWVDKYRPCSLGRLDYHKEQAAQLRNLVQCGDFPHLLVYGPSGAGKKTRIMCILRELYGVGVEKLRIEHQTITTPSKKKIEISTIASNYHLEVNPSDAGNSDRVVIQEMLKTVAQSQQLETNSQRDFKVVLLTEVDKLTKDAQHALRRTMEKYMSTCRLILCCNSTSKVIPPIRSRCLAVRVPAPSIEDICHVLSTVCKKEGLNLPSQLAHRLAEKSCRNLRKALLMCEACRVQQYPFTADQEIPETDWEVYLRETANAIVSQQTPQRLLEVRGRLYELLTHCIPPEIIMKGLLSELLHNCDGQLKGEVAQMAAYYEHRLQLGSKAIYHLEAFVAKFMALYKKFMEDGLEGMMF
UniProt Q9BVS4: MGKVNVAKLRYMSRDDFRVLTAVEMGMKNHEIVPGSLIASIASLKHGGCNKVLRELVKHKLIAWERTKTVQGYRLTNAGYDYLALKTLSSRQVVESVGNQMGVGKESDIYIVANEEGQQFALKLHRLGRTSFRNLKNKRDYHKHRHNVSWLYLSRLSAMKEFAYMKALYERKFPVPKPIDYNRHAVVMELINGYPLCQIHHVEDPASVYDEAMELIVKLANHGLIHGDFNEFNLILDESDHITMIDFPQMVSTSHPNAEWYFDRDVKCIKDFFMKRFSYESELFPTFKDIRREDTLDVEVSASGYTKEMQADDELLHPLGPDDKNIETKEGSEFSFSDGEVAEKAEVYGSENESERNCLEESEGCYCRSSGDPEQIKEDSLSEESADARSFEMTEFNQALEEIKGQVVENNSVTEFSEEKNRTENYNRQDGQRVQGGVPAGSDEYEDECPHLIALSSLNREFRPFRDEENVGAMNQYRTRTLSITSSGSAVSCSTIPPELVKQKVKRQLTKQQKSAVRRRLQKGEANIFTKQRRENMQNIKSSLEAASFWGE
UniProt Q9BQY4: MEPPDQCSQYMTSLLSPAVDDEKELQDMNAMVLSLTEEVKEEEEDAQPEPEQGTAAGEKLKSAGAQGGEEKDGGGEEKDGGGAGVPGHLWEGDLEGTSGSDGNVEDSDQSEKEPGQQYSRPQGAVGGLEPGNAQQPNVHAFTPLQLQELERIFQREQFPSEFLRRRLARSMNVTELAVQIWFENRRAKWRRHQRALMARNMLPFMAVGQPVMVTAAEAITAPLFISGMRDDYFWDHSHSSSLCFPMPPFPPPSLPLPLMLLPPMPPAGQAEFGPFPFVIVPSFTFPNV
UniProt Q5VTB9: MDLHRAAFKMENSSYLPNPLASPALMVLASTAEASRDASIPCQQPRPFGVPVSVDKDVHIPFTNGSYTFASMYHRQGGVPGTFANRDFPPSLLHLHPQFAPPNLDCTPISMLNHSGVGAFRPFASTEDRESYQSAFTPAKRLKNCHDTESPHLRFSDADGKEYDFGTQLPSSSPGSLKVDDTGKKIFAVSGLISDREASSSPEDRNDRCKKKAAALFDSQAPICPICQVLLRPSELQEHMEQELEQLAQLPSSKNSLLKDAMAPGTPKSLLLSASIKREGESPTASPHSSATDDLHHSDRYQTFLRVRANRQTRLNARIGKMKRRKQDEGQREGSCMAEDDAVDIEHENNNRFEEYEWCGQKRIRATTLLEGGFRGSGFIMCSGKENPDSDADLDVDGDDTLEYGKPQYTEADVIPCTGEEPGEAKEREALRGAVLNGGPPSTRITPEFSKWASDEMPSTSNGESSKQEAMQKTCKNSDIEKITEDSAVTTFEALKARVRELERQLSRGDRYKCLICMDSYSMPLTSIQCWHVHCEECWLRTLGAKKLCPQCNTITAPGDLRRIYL
UniProt Q6R327, whole entry, looked up: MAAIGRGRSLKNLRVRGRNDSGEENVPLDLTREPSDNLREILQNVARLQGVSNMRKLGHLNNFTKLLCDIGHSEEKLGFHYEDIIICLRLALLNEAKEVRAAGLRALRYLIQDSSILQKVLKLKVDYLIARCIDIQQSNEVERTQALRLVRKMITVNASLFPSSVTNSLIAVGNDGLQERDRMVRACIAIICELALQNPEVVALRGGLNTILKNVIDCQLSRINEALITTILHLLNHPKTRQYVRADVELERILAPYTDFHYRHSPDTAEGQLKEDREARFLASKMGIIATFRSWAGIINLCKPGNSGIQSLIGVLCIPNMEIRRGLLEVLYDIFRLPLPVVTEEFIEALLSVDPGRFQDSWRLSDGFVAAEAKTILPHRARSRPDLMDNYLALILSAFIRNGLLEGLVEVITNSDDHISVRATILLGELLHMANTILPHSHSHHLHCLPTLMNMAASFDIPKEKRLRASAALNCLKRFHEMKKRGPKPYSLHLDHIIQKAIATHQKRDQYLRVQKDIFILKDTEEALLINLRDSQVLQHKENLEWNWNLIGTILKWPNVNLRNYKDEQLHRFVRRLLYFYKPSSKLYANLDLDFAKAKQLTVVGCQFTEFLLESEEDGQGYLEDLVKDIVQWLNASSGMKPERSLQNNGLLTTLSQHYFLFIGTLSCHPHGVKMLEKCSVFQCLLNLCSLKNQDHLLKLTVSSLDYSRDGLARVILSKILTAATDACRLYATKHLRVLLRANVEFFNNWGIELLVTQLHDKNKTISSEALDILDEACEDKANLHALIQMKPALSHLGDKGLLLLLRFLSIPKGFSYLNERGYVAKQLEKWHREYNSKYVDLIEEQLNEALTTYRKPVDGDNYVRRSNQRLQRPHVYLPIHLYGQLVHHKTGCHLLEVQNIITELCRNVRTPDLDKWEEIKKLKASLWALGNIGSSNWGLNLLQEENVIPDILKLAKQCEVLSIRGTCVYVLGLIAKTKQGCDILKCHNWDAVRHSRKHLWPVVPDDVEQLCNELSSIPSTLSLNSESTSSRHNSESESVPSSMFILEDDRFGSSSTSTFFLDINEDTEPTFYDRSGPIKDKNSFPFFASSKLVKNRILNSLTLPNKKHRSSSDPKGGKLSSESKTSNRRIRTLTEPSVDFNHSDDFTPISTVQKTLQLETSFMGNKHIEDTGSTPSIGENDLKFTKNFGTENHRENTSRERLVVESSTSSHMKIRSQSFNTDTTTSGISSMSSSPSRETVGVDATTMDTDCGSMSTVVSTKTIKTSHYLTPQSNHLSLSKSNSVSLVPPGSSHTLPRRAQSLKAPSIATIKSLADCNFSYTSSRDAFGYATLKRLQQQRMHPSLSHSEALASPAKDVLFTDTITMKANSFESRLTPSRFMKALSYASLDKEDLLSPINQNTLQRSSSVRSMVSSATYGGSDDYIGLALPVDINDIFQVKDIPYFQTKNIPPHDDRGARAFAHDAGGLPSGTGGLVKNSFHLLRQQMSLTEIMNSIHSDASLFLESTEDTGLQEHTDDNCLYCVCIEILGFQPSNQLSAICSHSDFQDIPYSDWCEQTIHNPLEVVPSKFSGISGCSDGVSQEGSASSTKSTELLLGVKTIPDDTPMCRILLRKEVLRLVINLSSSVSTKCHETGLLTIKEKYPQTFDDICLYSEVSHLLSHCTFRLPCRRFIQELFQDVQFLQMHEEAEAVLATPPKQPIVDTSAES
UniProt Q86VR2, whole entry, looked up: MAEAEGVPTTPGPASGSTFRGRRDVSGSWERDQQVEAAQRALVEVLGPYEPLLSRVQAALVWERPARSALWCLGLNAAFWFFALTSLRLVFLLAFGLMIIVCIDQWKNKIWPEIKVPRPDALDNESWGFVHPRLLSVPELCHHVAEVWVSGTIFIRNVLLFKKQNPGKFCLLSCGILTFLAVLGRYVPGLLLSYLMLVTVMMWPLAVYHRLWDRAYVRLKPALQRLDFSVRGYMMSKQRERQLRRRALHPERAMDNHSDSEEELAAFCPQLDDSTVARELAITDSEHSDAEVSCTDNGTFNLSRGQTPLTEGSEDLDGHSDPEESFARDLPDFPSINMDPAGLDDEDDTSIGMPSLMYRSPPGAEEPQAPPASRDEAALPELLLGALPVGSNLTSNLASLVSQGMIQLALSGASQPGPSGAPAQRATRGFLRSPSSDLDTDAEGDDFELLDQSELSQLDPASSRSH
UniProt O75792: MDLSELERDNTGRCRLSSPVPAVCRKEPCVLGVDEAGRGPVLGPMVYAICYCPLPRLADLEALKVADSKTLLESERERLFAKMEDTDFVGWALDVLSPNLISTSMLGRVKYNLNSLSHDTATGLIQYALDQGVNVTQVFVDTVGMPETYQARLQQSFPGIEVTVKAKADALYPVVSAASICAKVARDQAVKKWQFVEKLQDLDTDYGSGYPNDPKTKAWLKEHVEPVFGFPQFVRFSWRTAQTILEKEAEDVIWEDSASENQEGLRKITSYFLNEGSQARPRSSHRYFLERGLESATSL
UniProt Q96DM3: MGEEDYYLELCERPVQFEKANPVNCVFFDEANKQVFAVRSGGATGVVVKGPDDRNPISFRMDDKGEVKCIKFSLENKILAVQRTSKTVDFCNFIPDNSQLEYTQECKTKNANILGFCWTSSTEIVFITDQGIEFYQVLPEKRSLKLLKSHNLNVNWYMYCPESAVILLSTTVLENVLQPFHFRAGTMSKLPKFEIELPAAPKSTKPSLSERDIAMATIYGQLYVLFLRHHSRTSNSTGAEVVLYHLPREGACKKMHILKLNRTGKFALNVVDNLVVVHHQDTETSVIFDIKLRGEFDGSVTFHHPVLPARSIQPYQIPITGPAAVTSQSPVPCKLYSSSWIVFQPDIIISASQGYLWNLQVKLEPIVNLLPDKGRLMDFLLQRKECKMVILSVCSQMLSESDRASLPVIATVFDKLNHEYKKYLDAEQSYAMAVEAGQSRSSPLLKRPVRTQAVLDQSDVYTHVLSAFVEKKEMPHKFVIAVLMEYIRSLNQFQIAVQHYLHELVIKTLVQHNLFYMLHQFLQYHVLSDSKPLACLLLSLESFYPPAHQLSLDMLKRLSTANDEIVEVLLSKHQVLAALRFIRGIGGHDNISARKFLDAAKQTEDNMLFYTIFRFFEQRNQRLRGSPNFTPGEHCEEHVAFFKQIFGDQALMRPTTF
UniProt Q9UBS8: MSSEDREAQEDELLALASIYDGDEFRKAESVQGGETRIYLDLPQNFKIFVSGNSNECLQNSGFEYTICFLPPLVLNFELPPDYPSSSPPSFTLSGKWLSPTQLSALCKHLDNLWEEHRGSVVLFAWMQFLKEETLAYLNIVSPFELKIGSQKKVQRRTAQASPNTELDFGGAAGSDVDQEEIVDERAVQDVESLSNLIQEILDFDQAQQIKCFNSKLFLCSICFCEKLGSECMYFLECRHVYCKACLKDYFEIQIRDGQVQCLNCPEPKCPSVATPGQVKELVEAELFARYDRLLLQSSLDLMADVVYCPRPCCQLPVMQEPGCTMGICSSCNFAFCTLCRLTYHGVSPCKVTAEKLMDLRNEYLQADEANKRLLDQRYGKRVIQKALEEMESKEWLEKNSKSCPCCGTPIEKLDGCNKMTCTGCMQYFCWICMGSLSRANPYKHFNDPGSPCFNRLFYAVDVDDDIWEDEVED
UniProt Q9BWF3: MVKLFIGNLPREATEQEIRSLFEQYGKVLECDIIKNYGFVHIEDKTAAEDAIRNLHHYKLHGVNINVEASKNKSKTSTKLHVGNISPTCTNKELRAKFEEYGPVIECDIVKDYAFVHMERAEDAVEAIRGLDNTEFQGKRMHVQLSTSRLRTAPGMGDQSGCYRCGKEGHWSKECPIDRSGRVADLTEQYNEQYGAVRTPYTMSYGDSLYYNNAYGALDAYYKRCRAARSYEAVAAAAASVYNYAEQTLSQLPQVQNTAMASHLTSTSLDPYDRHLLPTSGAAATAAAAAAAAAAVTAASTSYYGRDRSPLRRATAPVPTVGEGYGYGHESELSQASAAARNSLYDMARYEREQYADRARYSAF
UniProt Q8TC12: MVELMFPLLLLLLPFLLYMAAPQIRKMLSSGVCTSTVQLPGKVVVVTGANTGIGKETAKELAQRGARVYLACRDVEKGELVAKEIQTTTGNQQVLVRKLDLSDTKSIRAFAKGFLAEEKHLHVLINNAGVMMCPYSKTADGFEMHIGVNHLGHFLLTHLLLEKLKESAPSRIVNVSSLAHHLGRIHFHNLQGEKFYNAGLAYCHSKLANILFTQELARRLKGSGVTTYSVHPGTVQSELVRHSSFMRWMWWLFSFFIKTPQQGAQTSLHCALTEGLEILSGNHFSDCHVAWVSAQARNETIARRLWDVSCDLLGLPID

Columns and labels:
Assay in all cases: log2 fold change, soluble protein after heating vs DMSO (PISA); higher = thermal stabilisation; K562 cells, 10 uM, 30 min; active = over 0.2 and 3.5 SD of the protein, either way, in both replicates (recomputed)
saracatinib = compound: CN1CCN(CCOc2cc(OC3CCOCC3)c3c(Nc4c(Cl)ccc5c4OCO5)ncnc3c2)CC1 [saracatinib]
How it was run: (§1)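 Soluble protein was quantified by TMTpro 16plex LC-MS/MS after channel sums were equalised. It was obtained as the supernatant after 21,000xg for 90 min from pooled aliquots of K562 cells (2×10^6 cells/mL, 10 μM compound, 30 min) heated for 3 min across 48°C-58°C and extracted in PBS with 0.5% NP-40 at 4°C. Thermal stability values are relative to control samples and come from duplicates. They are given as log2 fold changes.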

sotrastaurin = compound: CN1CCN(c2nc(C3=C(c4c[nH]c5ccccc45)C(=O)NC3=O)c3ccccc3n2)CC1 [sotrastaurin]
How it was run: as §1

Tubastatin A = compound: CN1CCc2c(c3ccccc3n2Cc2ccc(C(=O)NO)cc2)C1 [Tubastatin A]
How it was run: as §1

[1] = compound: CNC(=O)C1=CC=CC=C1NC2=NC(=NC=C2Cl)NC3=C(C=C(C=C3)N4CCOCC4)OC
How it was run: as §1

defactinib = compound: CNC(=O)c1ccc(Nc2ncc(C(F)(F)F)c(NCc3nccnc3N(C)S(C)(=O)=O)n2)cc1 [defactinib]
How it was run: as §1

rucaparib = compound: CNCc1ccc(-c2[nH]c3cc(F)cc4c3c2CCNC4=O)cc1 [rucaparib]
How it was run: as §1

[2] = compound: CNc1nc(-c2ccc3c(N)n[nH]c3c2)cc(N2C[C@@H](C(=O)NC3CCCCC3)CC[C@H]2C)n1
How it was run: as §1

encorafenib = compound: COC(=O)N[C@@H](C)CNc1nccc(-c2cn(C(C)C)nc2-c2cc(Cl)cc(NS(C)(=O)=O)c2F)n1 [encorafenib]
How it was run: as §1

[3] = compound: COC(=O)[C@H](CCSC)NC(=O)C1=C(C=C(C=C1)NC[C@H](CS)N)C2=CC=CC=C2
How it was run: as §1

[4] = compound: COC1=CC=C(C=C1)CN2C=CC3=C2C=C(C=C3)C(=O)NO
How it was run: as §1

filanesib = compound: CON(C)C(=O)N1N=C(c2cc(F)ccc2F)S[C@@]1(CCCN)c1ccccc1 [filanesib]
How it was run: as §1

zotarolimus = compound: CO[C@H]1C[C@@H]2CC[C@@H](C)[C@@](O)(O2)C(=O)C(=O)N2CCCC[C@H]2C(=O)O[C@H]([C@H](C)C[C@@H]2CC[C@H](n3cnnn3)[C@H](OC)C2)CC(=O)[C@H](C)/C=C(\C)[C@@H](O)[C@@H](OC)C(=O)[C@H](C)C[C@H](C)/C=C/C=C/C=C/1C [zotarolimus]
How it was run: as §1

idasanutlin = compound: COc1cc(C(=O)O)ccc1NC(=O)[C@@H]1N[C@@H](CC(C)(C)C)[C@](C#N)(c2ccc(Cl)cc2F)[C@H]1c1cccc(Cl)c1F [idasanutlin]
How it was run: as §1

alisertib = compound: COc1cc(Nc2ncc3c(n2)-c2ccc(Cl)cc2C(c2c(F)cccc2OC)=NC3)ccc1C(=O)O [alisertib]
How it was run: as §1

[5] = compound: COc1cc2nc(-c3cc(F)ccc3O)nc(N[C@@H]3CNC[C@H]3C(C)(C)O)c2cc1OC
How it was run: as §1

gefitinib = compound: COc1cc2ncnc(Nc3ccc(F)c(Cl)c3)c2cc1OCCCN1CCOCC1 [gefitinib]
How it was run: as §1

[6] = compound: COc1cccc2cc(-c3nc([C@H]4CC[C@H](C(=O)O)CC4)n4ncnc(N)c34)[nH]c12
How it was run: as §1

lapatinib = compound: CS(=O)(=O)CCNCc1ccc(-c2ccc3ncnc(Nc4ccc(OCc5cccc(F)c5)c(Cl)c4)c3c2)o1 [lapatinib]
How it was run: as §1

pictilisib = compound: CS(=O)(=O)N1CCN(Cc2cc3nc(-c4cccc5[nH]ncc45)nc(N4CCOCC4)c3s2)CC1 [pictilisib]
How it was run: as §1

alvocidib = compound: CN1CC[C@H](c2c(O)cc(O)c3c(=O)cc(-c4ccccc4Cl)oc23)[C@H](O)C1 [alvocidib]
How it was run: as §1

Row | Target | log2 fold change (saracatinib) | log2 fold change (sotrastaurin) | log2 fold change (Tubastatin A) | log2 fold change [1] | log2 fold change (defactinib) | log2 fold change (rucaparib) | log2 fold change [2] | log2 fold change (encorafenib) | log2 fold change [3] | log2 fold change [4] | log2 fold change (filanesib) | log2 fold change (zotarolimus) | log2 fold change (idasanutlin) | log2 fold change (alisertib) | log2 fold change [5] | log2 fold change (gefitinib) | log2 fold change [6] | log2 fold change (lapatinib) | log2 fold change (pictilisib) | log2 fold change (alvocidib)
1 | RFC3 (UniProt P40938) | inactive: -0.021 | inactive: 0.032 | inactive: 0.023 | inactive: 0.031 | inactive: -0.052 | inactive: -0.011 | inactive: 0.007 | inactive: 0.062 | inactive: -0.058 | inactive: 0.125 | inactive: -0.046 | inactive: -0.026 | inactive: -0.088 | inactive: -0.021 | inactive: -0.042 | inactive: 0.008 | inactive: 0.024 | inactive: 0.037 | inactive: 0.035 | –
2 | RELA (UniProt Q04206) | inactive: 0.027 | inactive: -0.036 | inactive: -0.017 | inactive: 0.032 | inactive: -0.077 | inactive: -0.026 | inactive: -0.029 | inactive: 0.044 | inactive: -0.011 | inactive: 0.025 | inactive: -0.002 | inactive: 0.024 | inactive: -0.039 | inactive: -0.028 | inactive: -0.031 | inactive: 0.023 | inactive: 0.005 | inactive: 0.012 | inactive: -0.007 | –
3 | RIOK2 (UniProt Q9BVS4) | inactive: -0.073 | inactive: 0.033 | inactive: 0.067 | inactive: 0.195 | inactive: 0.138 | inactive: 0.014 | inactive: 0.069 | inactive: 0.05 | inactive: -0.009 | inactive: -0.039 | inactive: 0.064 | inactive: -0.017 | inactive: 0.01 | inactive: -0.025 | inactive: 0.074 | inactive: -0.101 | inactive: -0.057 | inactive: 0.08 | inactive: 0.049 | –
4 | RHOXF2 (UniProt Q9BQY4) | inactive: 0.015 | inactive: -0.002 | inactive: 0.042 | inactive: -0.021 | inactive: 0.008 | inactive: 0.09 | inactive: -0.074 | inactive: -0.018 | inactive: 0.066 | inactive: 0.017 | inactive: 0.013 | inactive: -0.039 | inactive: 0.02 | inactive: -0.068 | inactive: -0.001 | inactive: -0.021 | inactive: 0.056 | inactive: -0.028 | inactive: 0.088 | –
5 | RNF220 (UniProt Q5VTB9) | inactive: 0.012 | inactive: 0.022 | inactive: 0.066 | inactive: -0.008 | inactive: -0.059 | inactive: -0.043 | inactive: -0.038 | inactive: 0.031 | inactive: 0.015 | inactive: -0.004 | inactive: 0.108 | inactive: 0.062 | inactive: -0.006 | inactive: -0.062 | inactive: 0.047 | inactive: -0.032 | inactive: 0.002 | inactive: -0.006 | inactive: 0.068 | –
6 | RIC8A isoform 3 (UniProt Q9NPQ8) | inactive: 0.008 | inactive: -0.223 | inactive: 0.108 | inactive: -0.096 | inactive: -0.175 | inactive: 0.198 | inactive: -0.087 | inactive: 0.287 | inactive: -0.12 | inactive: -0.007 | inactive: -0.046 | inactive: -0.058 | inactive: -0.032 | inactive: 0.159 | inactive: -0.095 | inactive: 0.043 | inactive: 0.009 | inactive: 0.001 | inactive: -0.002 | –
7 | RICTOR isoform 3 (UniProt Q6R327) | inactive: 0.087 | active: 0.708 | inactive: 0.092 | inactive: 0.114 | – | inactive: -0.128 | inactive: 0.154 | inactive: 0.068 | – | – | inactive: -0.028 | – | inactive: -0.066 | – | inactive: 0.003 | inactive: 0.059 | – | inactive: 0.186 | inactive: -0.062 | –
8 | RETREG3 (UniProt Q86VR2) | inactive: 0.164 | inactive: 0.035 | inactive: 0.022 | inactive: 0.011 | inactive: -0.015 | inactive: 0.004 | inactive: -0.011 | inactive: -0.018 | inactive: 0.032 | inactive: -0.038 | inactive: -0.136 | inactive: -0.053 | inactive: -0.008 | inactive: 0.029 | inactive: -0.141 | inactive: 0.035 | inactive: 0.106 | inactive: 0.037 | inactive: 0.102 | –
9 | RBP4 (UniProt P02753) | inactive: 0.008 | – | inactive: -0.089 | inactive: -0.138 | inactive: -0.057 | inactive: 0.082 | inactive: 0.236 | inactive: -0.136 | inactive: 0.173 | inactive: 0.042 | – | inactive: -0.3 | inactive: 0.224 | inactive: -0.035 | – | – | inactive: 0.465 | – | inactive: -0.433 | inactive: 0.137
10 | RNASEH2A (UniProt O75792) | inactive: -0.071 | inactive: 0.029 | inactive: 0.033 | inactive: 0.029 | inactive: 0.117 | inactive: 0.018 | inactive: 0.033 | inactive: -0.003 | inactive: 0.096 | inactive: 0.029 | inactive: -0.005 | inactive: 0.034 | inactive: -0.007 | inactive: -0.016 | inactive: 0.049 | inactive: -0.013 | inactive: 0.031 | inactive: -0.029 | inactive: 0.234 | –
11 | RNF167 (UniProt Q9H6Y7) | inactive: -0.03 | inactive: 0.064 | inactive: -0.021 | inactive: 0.035 | inactive: 0.059 | – | inactive: 0.042 | – | inactive: -0.006 | inactive: -0.062 | inactive: -0.032 | inactive: -0.033 | inactive: 0.018 | inactive: -0.014 | inactive: -0.084 | inactive: -0.013 | inactive: 0.016 | inactive: 0.024 | inactive: -0.029 | –
12 | RMC1 (UniProt Q96DM3) | inactive: -0.002 | inactive: -0.01 | inactive: 0.007 | inactive: 0.014 | inactive: -0.041 | inactive: 0.029 | inactive: 0.014 | inactive: -0.013 | inactive: -0.018 | inactive: -0.002 | inactive: -0.058 | inactive: -0.015 | inactive: -0.047 | inactive: -0.059 | inactive: -0.006 | inactive: 0.045 | inactive: 0.044 | inactive: -0.029 | inactive: -0.105 | –
13 | RCOR3 isoform 3 (UniProt Q9P2K3) | inactive: -0.142 | inactive: -0.011 | inactive: 0.142 | inactive: -0.019 | inactive: -0.073 | inactive: 0.075 | inactive: -0.044 | inactive: 0.026 | inactive: -0.062 | inactive: -0.019 | inactive: 0.084 | inactive: -0.011 | inactive: -0.046 | inactive: -0.145 | inactive: 0.14 | inactive: 0.013 | inactive: 0.011 | inactive: 0 | inactive: -0.106 | –
14 | RNF14 (UniProt Q9UBS8) | inactive: -0.02 | inactive: -0.042 | inactive: -0.014 | inactive: 0.007 | inactive: -0.096 | inactive: -0.015 | inactive: -0.043 | inactive: -0.027 | inactive: 0.042 | inactive: 0.034 | inactive: -0.093 | inactive: 0.018 | inactive: 0.043 | inactive: -0.035 | inactive: -0.038 | inactive: 0.003 | inactive: -0.048 | inactive: 0.006 | inactive: 0.045 | –
15 | RHEB (UniProt Q15382) | inactive: 0.047 | inactive: 0.04 | inactive: -0.054 | inactive: -0.032 | inactive: 0.002 | inactive: -0.084 | inactive: -0.011 | inactive: 0.025 | inactive: 0 | inactive: -0.007 | inactive: -0.08 | inactive: 0.016 | inactive: -0.049 | inactive: -0.03 | inactive: 0.032 | inactive: 0.015 | inactive: 0.057 | inactive: 0.005 | inactive: 0.029 | –
16 | RBM4 (UniProt Q9BWF3) | inactive: 0.024 | inactive: -0.1 | inactive: 0.017 | inactive: -0.052 | inactive: -0.055 | inactive: 0.157 | inactive: -0.036 | inactive: 0.063 | inactive: 0.025 | inactive: -0.071 | inactive: 0.065 | inactive: 0.035 | inactive: 0.051 | inactive: 0.038 | inactive: -0.036 | inactive: -0.04 | inactive: -0.038 | inactive: 0.024 | inactive: 0.005 | –
17 | RDH11 (UniProt Q8TC12) | inactive: -0.121 | inactive: -0.019 | inactive: 0.003 | inactive: 0.136 | inactive: 0.001 | inactive: 0.113 | inactive: 0.019 | inactive: 0.094 | inactive: -0.086 | inactive: 0.087 | inactive: -0.046 | inactive: 0.093 | inactive: 0.032 | inactive: -0.01 | inactive: -0.333 | inactive: 0.071 | inactive: 0 | inactive: 0.03 | inactive: 0.241 | –

Reprinted at random: 2 records from the list
Row | Target | log2 fold change (saracatinib) | log2 fold change (sotrastaurin) | log2 fold change (Tubastatin A) | log2 fold change [1] | log2 fold change (defactinib) | log2 fold change (rucaparib) | log2 fold change [2] | log2 fold change (encorafenib) | log2 fold change [3] | log2 fold change [4] | log2 fold change (filanesib) | log2 fold change (zotarolimus) | log2 fold change (idasanutlin) | log2 fold change (alisertib) | log2 fold change [5] | log2 fold change (gefitinib) | log2 fold change [6] | log2 fold change (lapatinib) | log2 fold change (pictilisib) | log2 fold change (alvocidib)
8 | RETREG3 (UniProt Q86VR2) | inactive: 0.164 | inactive: 0.035 | inactive: 0.022 | inactive: 0.011 | inactive: -0.015 | inactive: 0.004 | inactive: -0.011 | inactive: -0.018 | inactive: 0.032 | inactive: -0.038 | inactive: -0.136 | inactive: -0.053 | inactive: -0.008 | inactive: 0.029 | inactive: -0.141 | inactive: 0.035 | inactive: 0.106 | inactive: 0.037 | inactive: 0.102 | –
7 | RICTOR isoform 3 (UniProt Q6R327) | inactive: 0.087 | active: 0.708 | inactive: 0.092 | inactive: 0.114 | – | inactive: -0.128 | inactive: 0.154 | inactive: 0.068 | – | – | inactive: -0.028 | – | inactive: -0.066 | – | inactive: 0.003 | inactive: 0.059 | – | inactive: 0.186 | inactive: -0.062 | –
